Experimental findings from PMC7969623 are described below.

This test addresses Sodium/potassium-transporting ATPase subunit alpha-3 (mouse (endogenous in mouse brain)) (UniProt Q6PIC6). In words: co-IP; detergent extract of mouse brain immunoprecipitated with monoclonal antibodies to α3-NKA or α1-NKA (anti-GFP as control) on Protein G Sepharose; western blotting with PRRT2 antibodies. (In western blotting, separated proteins are transferred to a membrane and probed.)

These are yes or no findings as the source states them, for the method shown. Binding seen in cells or lysates may run through a third protein. Some binding calls cover weakened binding; strength is not graded here.

B1: PRRT2 (endogenous, mouse brain) (protein, UniProt E9PUL5 1-346)
chain: MAASSSQVSEMKGVEDSSKTQTEGPRHSEEGLGPVQVVAEIPDQPEALQPGPGITAAPVDSGPKAELAPETTETPVETPETVQATDLSLNPEEGSKASPSPSPSEARQEPASKPDVNRETAAEEGSEPQSTAPPEPTSEPAFQINTQSDPQPTSQPPPKPPLQAEPPTQEDPTTEVLTESTGEKQENGAVVPLQAGDGEEGPAPQPHSPPSTKTPPANGAPPRVLQKLVEEDRIGRAHGGHPGSPRGSLSRHPSSQLAGPGVEGGEGTQKPRDYIILAILSCFCPMWPVNIVAFAYAVMSRNSLQQGDVDGAQRLGRVAKLLSIVALVGGVLIIIASCVINLGVYK
As for B1, the binding result is recorded as “binds”.
